Measured data: PubChem BioAssay AID504774 (Drosophila RNAi Screening Center, 2011)

Assay: 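Genes required for cells to withstand methyl methanesulphonate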 (primary screen)
Cells: Drosophila Kc167 cells
Knock-down reagent: long dsRNA against Drosophila genes, about 0.25 µg dsRNA per well
Duration: about 6 days: 3 days knock-down, then 3 days with or without MMS
Challenge: methyl methanesulphonate 0.004% (w/v) for 3 days after knock-down
Read-out: 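Viability in wells given MMS, read as ATP luminescence, normalised by quantiles plate by plate and averaged across replicates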
Direction: mean viability with MMS and viability with MMS: higher = more surviving cells after MMS
The screen tested about 23,000 reagents; below is an unselected part of those with a known target gene and a result. 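Values are quantile-normalised luminescence on an arbitrary scale; higher means more cells surviving MMS.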

Gene,PubChem SID,mean viability with MMS,"viability with MMS, replicate 1","viability with MMS, replicate 2"
Cyp9f2,SID104196427,3.71e6,4.28e6,4.15e6
CG9590,SID104196298,3.68e6,4.20e6,4.10e6
Tdc1,SID104184734,3.42e6,3.98e6,3.74e6
CG7366,SID104190617,1.96e6,4.19e6,4.02e6
CG11839,SID104194190,3.63e6,4.01e6,4.22e6
CG42369,SID104183036,3.33e6,3.88e6,3.58e6
lncRNA:CR32385,SID104202323,3.52e6,3.99e6,4.00e6
GstE10,SID104186463,3.59e6,4.01e6,4.11e6
Sp7,SID104195253,3.66e6,4.12e6,4.17e6
beat-Ia,SID104183281,3.43e6,3.88e6,3.90e6
CCDC151,SID104189923,3.49e6,3.93e6,3.98e6
CG14316,SID104194587,3.63e6,4.20e6,4.02e6
Arl6IP1,SID104194023,3.69e6,4.28e6,4.10e6
Osi14,SID104192160,3.29e6,3.79e6,3.74e6
CG42288,SID104186173,3.54e6,4.05e6,4.07e6
MED19,SID104190308,3.05e6,3.62e6,3.60e6
CG9040,SID104190845,3.33e6,3.85e6,3.63e6
Chsy,SID104199967,3.54e6,3.98e6,4.06e6
Chsy,SID104199968,3.72e6,4.13e6,4.21e6
Rop,SID104188485,3.59e6,4.05e6,4.09e6
CG11110,SID104185829,3.55e6,3.96e6,4.07e6
miple2,SID104188515,3.60e6,4.11e6,4.03e6
CG10333,SID104181828,3.22e6,3.65e6,3.58e6
CG8260,SID104199890,3.52e6,3.94e6,4.06e6
CG17801,SID104195065,3.55e6,4.02e6,4.03e6
mi,SID104184290,3.49e6,3.95e6,3.76e6
CIAPIN1,SID104183351,3.68e6,4.20e6,4.21e6
prod,SID104187459,3.56e6,4.16e6,3.92e6
RpL13,SID104183208,1.15e6,3.55e6,3.54e6
CG14506,SID104194650,3.58e6,3.99e6,4.12e6
alpha-Cat,SID104191709,3.52e6,3.98e6,3.98e6
Ir75b,SID104189981,3.63e6,4.17e6,4.05e6
CG13436,SID104186188,3.54e6,3.96e6,4.06e6
CG34348,SID104199217,3.57e6,4.13e6,3.94e6
CG34348,SID104199436,3.49e6,3.96e6,3.93e6
ZIPIC,SID104196141,3.50e6,4.01e6,3.94e6
CG33287,SID104202286,3.49e6,3.95e6,3.99e6
CG40198,SID104200860,3.44e6,3.98e6,3.82e6
CG13473,SID104189809,3.69e6,4.20e6,4.11e6
amos,SID104183276,3.56e6,4.02e6,4.05e6
CG3630,SID104198291,3.61e6,4.21e6,3.98e6
nAChRalpha7,SID104199870,3.62e6,3.94e6,4.21e6
nAChRalpha7,SID104199873,3.56e6,3.93e6,4.13e6
CG4596,SID104195400,3.53e6,4.01e6,4.00e6
PolZ1,SID104186592,3.46e6,4.01e6,3.81e6
Mdh1 (retired record),SID104182638,3.70e6,4.22e6,4.17e6
cype,SID104182148,3.40e6,3.71e6,3.97e6
Rbbp5,SID104191570,3.47e6,4.02e6,3.84e6
Septin1,SID104200365,3.62e6,4.11e6,4.06e6
CG11902,SID104194226,3.37e6,4.13e6,4.06e6
MtnD,SID104202110,3.59e6,4.11e6,3.99e6
CG42246,SID104197312,3.56e6,4.03e6,4.04e6
CG4452,SID104190214,3.64e6,4.04e6,4.22e6
CG6429,SID104186778,3.46e6,3.80e6,4.01e6
Ric,SID104187324,3.62e6,4.04e6,4.14e6
tbc,SID104200332,3.20e6,3.70e6,3.70e6
tbc,SID104202441,3.63e6,4.08e6,4.16e6
Gr57a,SID104186193,3.57e6,4.09e6,3.99e6
CG17134,SID104182375,3.50e6,3.95e6,3.99e6
CG30049,SID104201123,3.68e6,4.19e6,4.11e6
NtR,SID104184420,3.46e6,3.96e6,3.86e6
RpS12,SID104191062,3.13e6,3.66e6,3.61e6
dhd,SID104198553,3.65e6,4.02e6,4.12e6
CG32628 (retired record),SID104199197,3.54e6,3.96e6,4.06e6
CG14926,SID104182201,3.48e6,3.80e6,4.11e6
Arc2,SID104186228,3.43e6,3.94e6,3.97e6
Dnaaf4,SID104182197,3.56e6,3.99e6,4.11e6
Grip71,SID104181834,3.47e6,3.91e6,3.95e6

Part of the list above, set out differently:
Gene	PubChem SID	mean viability with MMS	viability with MMS, replicate 1	viability with MMS, replicate 2
miple2	SID104188515	3.60e6	4.11e6	4.03e6
CG10333	SID104181828	3.22e6	3.65e6	3.58e6
CG8260	SID104199890	3.52e6	3.94e6	4.06e6
CG17801	SID104195065	3.55e6	4.02e6	4.03e6
mi	SID104184290	3.49e6	3.95e6	3.76e6
CIAPIN1	SID104183351	3.68e6	4.20e6	4.21e6
prod	SID104187459	3.56e6	4.16e6	3.92e6
